Experimental data: article PMC6964674
No constants are given. Whether binding was seen depends on the method and setting. Binding seen in cells or lysates may run through a third protein.

Molecular target: SOX9 (human (endogenous in MCF-7 and T47D)), P48436
Assay: co-IP; endogenous proteins; lysates of TAMR MCF-7 (and TAMR T47D) cells precipitated with anti-SOX9 and protein G magnetic beads overnight, blotted for SIRT1, HDAC4 or HDAC5
Conditions: remark: other sources report otherwise

binding: no binding
B1: Sirtuin 1 (SIRT1), Q96EB6 1-747 (enzyme)
chain: MADEAALALQPGGSPSAAGADREAASSPAGEPLRKRPRRDGPGLERSPGEPGGAAPEREVPAAARGCPGAAAAALWREAEAEAAAAGGEQEAQATAAAGEGDNGPGLQGPSREPPLADNLYDEDDDDEGEEEEEAAAAAIGYRDNLLFGDEIITNGFHSCESDEEDRASHASSSDWTPRPRIGPYTFVQQHLMIGTDPRTILKDLLPETIPPPELDDMTLWQIVINILSEPPKRKKRKDINTIEDAVKLLQECKKIIVLTGAGVSVSCGIPDFRSRDGIYARLAVDFPDLPDPQAMFDIEYFRKDPRPFFKFAKEIYPGQFQPSLCHKFIALSDKEGKLLRNYTQNIDTLEQVAGIQRIIQCHGSFATASCLICKYKVDCEAVRGDIFNQVVPRCPRCPADEPLAIMKPEIVFFGENLPEQFHRAMKYDKDEVDLLIVIGSSLKVRPVALIPSSIPHEVPQILINREPLPHLHFDVELLGDCDVIINELCHRLGGEYAKLCCNPVKLSEITEKPPRTQKELAYLSELPPTPLHVSEDSSSPERTSPPDSSVIVTLLDQAAKSNDDLDVSESKGCMEEKPQEVQTSRNVESIAEQMENPDLKNVGSSTGEKNERTSVAGTVRKCWPNRVAKEQISRRLDGNQYLFLPPNRYIFHGAEVYSDSEDDVLSSSSCGSNSDSGTCQSPSLEEPMEDESEIEEFYNGLEDEPDVPERAGGAGFGTDGDDQEAINEAISVKQEVTDMNYPSNKS
